Library screen at single concentrations

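Assay of Toxoplasma gondii numbers, read through their beta-galactosidase reporter with a colour substrate. Concentration: 10 µM. The record gives no direction; the compounds picked for IC50 retests had high values, so higher reads as fewer parasites. About 67,000 compounds were tested under these conditions; 0.38% (about 260) showed 50% or more at least once.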

Values are the deposited “Percent Effect”, in %.
The record does not define 0% and 100%; most values in the screen are far below 50% and negative numbers occur (in some assays of this library far below -100).
The compounds are a random part of those screened.

COC(=O)CC(c1ccc(O)c(Cl)c1)c1oc(C)cc(=O)c1O (configuration not stated) read -14.64%. Cc1nc(CN2CCCC(c3nc(C)n4c(C)c(C)sc34)C2)co1 (configuration not stated) read 15.25%. With CC(=O)N(C)CC(=O)Nc1cccc(N2CCN(CC3CC3)CC2)c1 the screen gave 3.562%. COC(=O)c1ccc(C(=O)NCC2(O)CCOCC2)cc1 read 11.31%. Result for O=C(c1cc(Cl)c2c(c1)OCO2)N1CCN(c2ncccn2)CC1 was 8.779%. Cc1cc(=O)n(CCNS(=O)(=O)c2ccccc2)cn1 gave 3.51%. With Cc1nc2n(n1)CC(NCc1nc(-c3cccnc3)no1)CC2 (configuration not stated) the screen gave 0.8107%. Result for O=C(c1ccc(C2CCCN2)s1)N1CCN(C(=O)N2CCOCC2)CC1 (configuration not stated) was 3.696%.

Result for CC(=O)c1ccc(Cl)c(Cl)c1OCC(=O)NC(N)=O was -4.866%. CCC(=O)N1CCC(NC2CCCC2)C1 (configuration not stated) gave -1.514%. For COc1cccc(CN2CCCC3(CCN(C(=O)c4ccco4)C3)C2)c1 (configuration not stated) the result was 6.23%. CCCc1nnc2sc(C3CCN(C4CCN(C)CC4)CC3)nn12 gave -17.17%. Result for CCOCCOC(C)C(=O)Nc1ccc2ccn(CCN(C)C)c2c1 (configuration not stated) was -10.67%. CS(=O)(=O)N1CCC(c2nnc(Cn3ccnc3)n2C2CC2)CC1 gave -2.487%. With CCOC(=O)CN(C)Cc1cnc(C)s1 the screen gave 18.44%. CC(C)c1nnc2n1CCN(c1nn3cc(C(C)(C)C)nc3s1)C2 gave 5.569%.

Result for CCOc1ccccc1C(=O)NCc1nncn1C1CC1 was 1.951%. With CN(Cc1noc2c1CCCC2)C(=O)C1Cc2ccccc2CN1C (configuration not stated) the screen gave -21.92%. Result for CCS(=O)(=O)N1CCC2(CC(=O)N(c3ccccc3C)C2)C1 (configuration not stated) was -2.256%. For Cc1cnn(C2CCCN(C(=O)c3cc(C)sc3C)C2)c1 (configuration not stated) the result was -1.056%. For CC(c1ccon1)N(C)C(=O)C1CCN(C(=O)C2CC2)CC1 (configuration not stated) the result was -12.64%. O=C(CCNc1ccc(Cl)cn1)NCc1ccncc1 gave 1.431%. CC(C)(C)C(=O)N1CCN(C(=O)Nc2cnn(CC(F)F)c2)CC1 gave -2.564%. With O=C(O)C(F)(F)F.O=C(c1cnccn1)N1CCOCC2(CCN(C3CCOCC3)C2)C1 (configuration not stated) the screen gave -6.934%.

CC(C)NC(=O)N1CC(=O)c2sc(NC3CCCCC3)nc2C1 read 6.169%. c1csc(-c2noc(CN3CCCC3Cn3cccn3)n2)c1 (configuration not stated) read 8.369%. For Cc1cc(=O)c2ccccc2n1CC1CCNC1 (configuration not stated) the result was 2.01%. For CCOCC1CN(CCOCc2ccccc2)Cc2c1cnn2C (configuration not stated) the result was 4.657%. CN1CCN(c2cc(CNC(=O)c3cnccn3)ccn2)CC1 gave -9.967%. Result for CCC(=O)Nc1ccccc1Sc1nc(Br)nn1C was 3.789%. With COc1ccc(-c2n[nH]cc2CN(C)Cc2nccn2C)c(F)c1 the screen gave 10.7%. [H][C@@]12C[C@H](C)O[C@]1([H])CCN(S(=O)(=O)c1ccc(F)cc1)C2 gave -5.954%.

Result for c1ccc(Cn2cncn2)c(CNCC2CNc3ccnn3C2)c1 (configuration not stated) was -0.3176%. Result for CCc1ccc(C(=O)Nc2ccc(CC3CC(=O)NC3=O)cc2)cc1 (configuration not stated) was 11.93%. For O=C(O)C(F)(F)F.O=C(O)C(F)(F)F.[H][C@@]12CCCO[C@]1([H])[C@H](N(C)Cc1cncnc1)CN(Cc1ccco1)C2 the result was 2.438%. For COc1ncccc1CNC(=O)c1cc(Cl)ccn1 the result was 8.529%. With CN(Cc1cnn(C)c1)C(=O)NC1CCS(=O)(=O)C1 (configuration not stated) the screen gave 14.48%. NC(=O)C1CCN(C(=O)NCCOc2ccc3c(c2)CCC3)CC1 read 12.75%. With Cn1cnnc1-c1cncc(NCc2cccc3c2OC(C)(C)C3)c1 the screen gave 6.503%. Cn1ccc(C(=O)Nc2nnc(-c3ccccn3)[nH]2)cc1=O read -14.33%.

With Cc1cc(C(=O)N2CCc3c(ncnc3N3CCOCC3)C2)[nH]n1 the screen gave -4.054%. With [H][C@@]12C[C@@H](c3noc(C)n3)O[C@]1([H])CN(C(=O)c1cc(C)nn1CC)C2 the screen gave -15.76%. With c1ccc(Cc2nnc([C@H]3CCN(C4CCCCC4)C3)o2)cc1 the screen gave -2.206%. For COCCN1Cc2ccccc2C2(CCN(S(C)(=O)=O)CC2)C1 the result was -4.565%. Cc1nc(S(=O)(=O)CCn2cccn2)n(CC2CCCO2)c1C (configuration not stated) gave 1.063%. For Cc1noc(C)c1C(=O)N1CCCC(c2cc(C(F)(F)F)[nH]n2)C1 (configuration not stated) the result was 4.882%. With Cc1csc2c(N3CCC(NCCCc4ccncc4)CC3)ncnc12 the screen gave -2.876%. For c1cnc(N2CCCC(Cc3nccs3)C2)nc1 (configuration not stated) the result was -9.679%.

For O=C(CNc1cc(-c2ccccc2)nc2ccnn12)NC1CC1 the result was -0.8759%. With CC(C)(C)C1CCC(NCCN2CCOCC2)CC1 (configuration not stated) the screen gave 5.625%. Result for CC1(c2ccccc2)CCC(=O)N(CCN2CCCOC2=O)C1 (configuration not stated) was -6.833%. CC(O)CN1CCN(C(=O)c2ccc(Cn3cccn3)cc2)CC1 (configuration not stated) gave 10.74%. For COCCN1CCCn2c(nc(Cn3cncn3)cc2=O)C1.O=C(O)C(F)(F)F the result was 3.738%. Result for Cc1nn(C)c(C)c1CC(=O)N1CCC(Nc2cccnn2)CC1 was -15.38%. Result for O=C(O)C(F)(F)F.O=C(O)C(F)(F)F.[H][C@@]12C[C@@H](OCc3cccnc3)CN1CCN(C(=O)c1cccc(F)c1)C2 was 7.377%. O=C(NCc1cc2n(n1)CCCNC2)C1(c2ccc(Cl)cc2)CCC1 read 5.464%.

Cc1nc2c(C)cccc2cc1C(=O)N1CCC2(CCNCC2)CC1 gave 3.531%. COc1cccc(-n2ccc3nc(N4CCCC4)ncc3c2=O)c1 read -2.806%. COCCOC1CCN(C(C(=O)O)c2ccc3c(c2)OCO3)CC1 (configuration not stated) read 2.406%.

For reference, 6 entries once more:

{"smiles": "Cc1csc2c(N3CCC(NCCCc4ccncc4)CC3)ncnc12", "Percent Effect": -2.876}
{"smiles": "CC(C)c1nnc2n1CCN(c1nn3cc(C(C)(C)C)nc3s1)C2", "Percent Effect": 5.569}
{"smiles": "Cc1noc(C)c1C(=O)N1CCCC(c2cc(C(F)(F)F)[nH]n2)C1", "stereo": "configuration not stated", "Percent Effect": 4.882}
{"smiles": "CCOC(=O)CN(C)Cc1cnc(C)s1", "Percent Effect": 18.44}
{"smiles": "Cc1cc(C(=O)N2CCc3c(ncnc3N3CCOCC3)C2)[nH]n1", "Percent Effect": -4.054}
{"smiles": "COc1cccc(CN2CCCC3(CCN(C(=O)c4ccco4)C3)C2)c1", "stereo": "configuration not stated", "Percent Effect": 6.23}

The values are deposited in ChEMBL (CHEMBL3988442, “University of Dundee, Small-Polar-MMV Screening Library” (2021)).